Results reported in patent US20100279930A1, “HUMAN PANCREATIC POLYPEPTIDE (HPP) ANALOGUES AND THEIR EFFECTS ON FEEDING BEHAVIOUR” (priority 2007, published 2010).
No constants are given. Whether binding was seen depends on the method and setting. Some entries that bind do so weakly or less than the wild type.

Chains of the proteins cited; added tags and fusions are not shown.
UniProt P50391: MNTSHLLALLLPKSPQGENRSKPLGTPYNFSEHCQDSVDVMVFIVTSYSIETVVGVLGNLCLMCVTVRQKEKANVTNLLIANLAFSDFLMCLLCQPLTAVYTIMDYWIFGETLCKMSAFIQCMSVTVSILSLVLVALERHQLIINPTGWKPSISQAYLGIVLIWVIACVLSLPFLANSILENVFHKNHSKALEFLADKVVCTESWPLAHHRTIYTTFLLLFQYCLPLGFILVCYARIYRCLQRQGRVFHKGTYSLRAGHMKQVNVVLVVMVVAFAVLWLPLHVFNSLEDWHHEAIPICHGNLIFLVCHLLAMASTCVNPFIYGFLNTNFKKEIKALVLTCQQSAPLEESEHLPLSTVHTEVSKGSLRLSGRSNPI

Target: human Y4 receptor (human) (UniProt P50391)
Assay: 125I-PP displacement assay, human Y4 receptor membranes

| Binder | binding |
| --- | --- |
| GAPLEPHFPGDNATPEEMAKYAAELRRYINKLTRPRY [compound of SEQ ID NO:1092] | binds |
| KPLEPVYPGDNATPEQMAQYAADLRRYINMLTRPRY (lauryl-lysine at position 1 (replaces Ala 1)) [compound of SEQ ID NO:11 (code 6435)] | binds |
| KPLEPVYPGDNATPEELNRYYASLRRYINMLTRPRY [compound of SEQ ID NO:72 (code 6674)] | binds |
| KPLEPVYPGDNATPEELNRYYASLRRYINMLTRPRY [compound of SEQ ID NO:73 (code 6675)] | binds |
